pIC50: −log10 of the molar value. Some entries share one result that the patent states for a list of compounds. At least one structure is not confirmed: it was looked up by name or label, or the drawing left a doubt.
target: human NaV 1.8 (Homo sapiens, UniProt Q9Y5Y9); experiment: E-VIPR assay detecting and measuring NaV inhibition properties; type: cell-based; conditions: HEK cells expressing truncated human NaV 1.8; in the presence of human serum (compound numbers followed by *); read-out: IC50 in the E-VIPR Assay, performed in the presence of human serum
Source text: Sodium ion channels are voltage-dependent proteins that can be activated by inducing membrane voltage changes by applying electric fields. The electrical stimulation instrument and methods of use, referred to as E-VIPR, are described in International Publication No. WO 2002/008748 A3 and C.-J. Huang et al. Characterization of voltage-gated sodium channel blockers by electrical stimulation and fluorescence detection of membrane potential, 24 Nature Biotech. 439-46 (2006), both of which are incorporated by reference in their entirety. The instrument comprises a microtiter plate handler, an optical system for exciting the coumarin dye while simultaneously recording the coumarin and oxonol emissions, a waveform generator, a current- or voltage-controlled amplifier, and parallel electrode pairs that are inserted into assay plate wells. Under integrated computer control, this instrument passes user-programmed electrical stimulus protocols to cells within the wells of the microtiter plate.
16-20 hours prior to running the assay on E-VIPR, HEK cells expressing a truncated form of human NaV 1.8 with full channel activity were seeded into microtiter 384-well plates, pre-coated with matrigel, at a density of 25,000 cells per well. 2.5-5% KIR2.1 Bacmam virus was added to the final cell suspension before seeding into cell plates. HEK cells were grown in Dulbecco's Modified Eagle's Medium (DMEM) supplemented with 10% FBS (Fetal Bovine Serum, qualified; Sigma #F4135), 1% NEAA (Non-Essential Amino Acids, Gibco #11140), 1% HEPES (Gibco #15630), 1% Pen-Strep (Penicillin-Streptomycin; Gibco #15140) and 5 μg/ml Blasticidin (Gibco #R210-01). Cells were expanded in vented cap cell culture flasks, with 90-95% humidity and 5% CO2.
Human Serum (HS, Millipore #S1P1-01KL, or Sigma SLBR5469V and SLBR5470V as a 50%/50% mixture, for 25% assay final concentration) • Bath 1 Buffer: • Sodium Chloride 160 mM (9.35 g/L), Potassium Chloride, 4.5 mM (0.335 g/L), Glucose 10 mM (1.8 g/L), Magnesium Chloride (Anhydrous) 1 mM (0.095 g/L), Calcium Chloride 2 mM (0.222 g/L), HEPES 10 mM (2.38 g/L) in water. • Na/TMA C1 Bath 1 Buffer: • Sodium Chloride 96 mM (5.61 g/L), Potassium Chloride 4.5 mM (0.335 g/L), Tetramethylammonium (TMA)-Cl 64 mM (7.01 g/L), Glucose 10 mM (1.8 g/L), Magnesium Chloride (Anhydrous) 1 mM (0.095 g/L), Calcium Chloride 2 mM (0.222 g/L) HEPES 10 mM (2.38 g/L) in water. • Hexyl Dye Solution (2× concentration): • Bath 1 Buffer containing 0.5% P-cyclodextrin (made fresh prior to each use, Sigma #C4767), 8 μM CC2-DMPE and 2 μM DiSBAC6(3). The solution was made by adding 10% Pluronic F127 stock equal to combined volumes of CC2-DMPE and DiSBAC6(3). The order of preparation was first mix Pluronic and CC2-DMPE, then add DiSBAC6(3), then while vortexing add Bath 1/p-Cyclodextrin.
Compound Loading Buffer (2× concentration): Na/TMA C1 Bath1 Buffer containing HS (omitted in experiments run in the absence of human serum (HS)) 50%, VABSC-1 1 mM, BSA 0.2 mg/ml (in Bath-1), KCl 9 mM, DMSO 0.625%.
1) To reach the final concentration in each well, 375 nL of each compound was pre-spotted (in neat DMSO) into polypropylene compound plates at 240× desired final concentration from an intermediate stock concentration of 0.075 mM, in an 11 point dose response, 3-fold dilution, resulting in a top dose of 300 nM final concentration in the cell plate. Vehicle control (neat DMSO), and positive control (an established NaV1.8 inhibitor, 25 μM final in assay in DMSO) were added manually to the outermost columns of each plate respectively. The compound plate was backfilled with 45 μL per well of Compound Loading Buffer resulting in a 240 fold dilution of compound following a 1:1 transfer of compound into the cell plate (see Step 6). Final DMSO concentration for all wells in the assay was 0.625% (0.75% DMSO was supplemented to the Compound Loading Buffer for a final DMSO concentration of 0.625%). […]

The chains behind the UniProt entries cited, without tags or fusion partners. Residues count along the entry.
UniProt Q9Y5Y9, 660-890 limits assumed: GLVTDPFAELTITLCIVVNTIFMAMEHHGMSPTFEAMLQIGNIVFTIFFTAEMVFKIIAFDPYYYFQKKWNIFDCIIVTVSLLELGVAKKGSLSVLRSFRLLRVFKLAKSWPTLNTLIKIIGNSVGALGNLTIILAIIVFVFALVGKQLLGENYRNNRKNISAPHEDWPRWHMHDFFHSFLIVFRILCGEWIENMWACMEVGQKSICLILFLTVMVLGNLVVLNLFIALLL
UniProt Q9Y5Y9, 1148-1722 limits assumed: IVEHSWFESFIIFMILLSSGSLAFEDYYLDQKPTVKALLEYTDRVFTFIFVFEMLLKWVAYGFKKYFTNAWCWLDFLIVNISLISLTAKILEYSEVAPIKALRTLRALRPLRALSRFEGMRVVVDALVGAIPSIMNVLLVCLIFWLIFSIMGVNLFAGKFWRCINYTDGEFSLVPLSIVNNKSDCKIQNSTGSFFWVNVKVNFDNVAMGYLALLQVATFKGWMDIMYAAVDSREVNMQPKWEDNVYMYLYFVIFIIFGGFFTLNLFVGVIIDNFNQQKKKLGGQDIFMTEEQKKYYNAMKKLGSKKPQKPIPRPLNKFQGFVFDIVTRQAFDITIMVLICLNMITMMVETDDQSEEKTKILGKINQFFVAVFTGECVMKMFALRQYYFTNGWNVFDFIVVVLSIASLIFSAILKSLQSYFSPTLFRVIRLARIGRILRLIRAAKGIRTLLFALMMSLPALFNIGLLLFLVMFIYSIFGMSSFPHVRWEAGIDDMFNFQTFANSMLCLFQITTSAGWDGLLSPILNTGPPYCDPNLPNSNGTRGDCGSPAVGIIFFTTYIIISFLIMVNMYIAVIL
UniProt Q9Y5Y9, 126-399 limits assumed: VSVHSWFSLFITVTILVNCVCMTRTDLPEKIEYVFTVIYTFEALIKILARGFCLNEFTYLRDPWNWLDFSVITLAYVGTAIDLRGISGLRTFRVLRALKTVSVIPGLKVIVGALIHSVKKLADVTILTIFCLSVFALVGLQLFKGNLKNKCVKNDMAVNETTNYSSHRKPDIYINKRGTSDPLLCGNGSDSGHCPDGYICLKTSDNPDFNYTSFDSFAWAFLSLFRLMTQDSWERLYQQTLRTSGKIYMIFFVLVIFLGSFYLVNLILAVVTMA

With `COc1c([C@H]2[C@H](C(=O)Nc3ccnc(C(O)C(C)O)c3)O[C@@](C)(C(F)(F)F)[C@H]2C)ccc(F)c1C` (relative stereo) [Compound 145, rel-(2R,3S,4S,5R)-N-(2-(syn-1,2-dihydroxypropyl)pyridin-4-yl)-3-(4-fluoro-2-methoxy-3-methylphenyl)-4,5-dimethyl-5-(trifluoromethyl)tetrahydrofuran-2-carboxamide] as the compound, how does the pIC50 read?
Its pIC50 is greater than 8.00.

With `CCOc1c(C2CC(C)(C(F)(F)F)OC2C(=O)Nc2ccn3c(OC)nnc3c2)ccc(F)c1F` (centres unmarked) [Compound 707] as the compound, how does the pIC50 read?
Its pIC50 is no more than 6.00.

same assay, conditions: HEK cells expressing truncated human NaV 1.8; no human serum; read-out: IC50 in the E-VIPR Assay

`COc1c([C@H]2[C@H](C(=O)Nc3ccnc(C(O)C4CC4)c3)O[C@@](C)(C(F)(F)F)[C@H]2C)ccc(F)c1F` (relative stereo) [Compound 250, rel-(2R*,3S*,4S*,5R*)-N-(2-(cyclopropyl(hydroxy)methyl)pyridin-4-yl-3-(3,4-difluoro-2-methoxyphenyl)-4,5-dimethyl-5-(trifluoromethyl)tetrahydrofuran-2-carboxamide] was tested. Which pIC50 did it give?
The pIC50 was greater than 8.00.

How did the pIC50 turn out when `COc1c([C@H]2[C@H](C(=O)Nc3ccc4nnnn4c3)O[C@@](C)(C(F)(F)F)[C@H]2C)ccc(F)c1F` (stereo in doubt) [Compound 451, rel-(2R,3S,4S,5R)-3-(3,4-difluoro-2-methoxyphenyl)-4,5-dimethyl-N-(tetrazolo[1,5-α]pyridin-6-yl)-5-(trifluoromethyl)tetrahydrofuran-2-carboxamide] was run?
The pIC50 was greater than 8.00.

With `COc1c(C2C(C(=O)Nc3ccn4nnnc4c3)OC(C)(C(F)(F)F)C2C)ccc(F)c1F` (centres unmarked) [Compound 31] as the compound, how does the pIC50 read?
Its pIC50 is no more than 6.00.

With `COc1c(C2C(C(=O)Nc3ccn4nnnc4c3)OC(C)(C(F)(F)F)C2C)ccc(F)c1F` (centres unmarked) [Compound 32] as the compound, how does the pIC50 read?
The pIC50 was greater than 8.00.

With `COc1c([C@H]2[C@H](C(=O)Nc3ccc(=O)[nH]c3)O[C@@](C)(C(F)(F)F)[C@H]2C)ccc(F)c1F` [Compound 190] as the compound, how does the pIC50 read?
Its pIC50 is greater than 8.00.

How did the pIC50 turn out when `COc1c([C@H]2[C@H](C(=O)Nc3ccnc(C[C@@H]4COCCN4)c3)O[C@@](C)(C(F)(F)F)[C@H]2C)ccc(F)c1F` [Compound 216, (2R,3S,4S,5R)-3-(3,4-difluoro-2-methoxyphenyl)-4,5-dimethyl-N-(2-(((R)-morpholin-3-yl)methyl)pyridin-4-y1)-5-(trifluoromethyl)tetrahydrofuran-2-carboxamide] was run?
The pIC50 was greater than 8.00.

How did the pIC50 turn out when `COc1c([C@H]2[C@H](C(=O)Nc3ccc4nc(C(N)=O)cn4c3)O[C@@](C)(C(F)(F)F)[C@H]2C)ccc(F)c1F` [Compound 234] was run?
The pIC50 was greater than 8.00.

`COc1c([C@H]2[C@H](C(=O)Nc3ccc4nc(C(=O)N5CCNCC5)cn4c3)O[C@@](C)(C(F)(F)F)[C@H]2C)ccc(F)c1F` [Compound 262] was tested. Which pIC50 did it give?
The pIC50 was greater than 8.00.

`COc1c([C@H]2[C@H](C(=O)Nc3ccnc(CN(C)CCO)c3)O[C@@](C)(C(F)(F)F)[C@H]2C)ccc(F)c1F` [Compound 265] was tested. Which pIC50 did it give?
Its pIC50 is greater than 8.00.

`COc1c([C@H]2[C@H](C(=O)Nc3ccn4cnnc4c3)O[C@@](C)(C(F)(F)F)[C@H]2C)ccc(F)c1F` [Compound 328] was tested. Which pIC50 did it give?
The pIC50 was greater than 8.00.

How did the pIC50 turn out when `COc1c([C@H]2[C@H](C(=O)Nc3ccc4nnc(CO)n4c3)O[C@@](C)(C(F)(F)F)[C@H]2C)ccc(F)c1F` [Compound 432] was run?
Its pIC50 is greater than 8.00.

`COc1c(C2C(C(=O)Nc3ccc4nnnn4c3)OC(C)(C(F)(F)F)C2C)ccc(F)c1F` (centres unmarked) [Compound 454] was tested. Which pIC50 did it give?
Its pIC50 is greater than 8.00.
